From article PMC11056319, “Targeting PRMT9-mediated arginine methylation suppresses cancer stem cell maintenance and elicits cGAS-mediated anticancer immunity” (Nature Cancer, 2024)
Where a chain is given by its changes, count along the chain named. No constants are given. Whether binding was seen depends on the method and setting. Binding seen in cells or lysates may run through a third protein. Some entries that bind do so weakly or less than the wild type. Sequences can lack the tags named with a protein.

Assays:
[1] = biological target: T1, FLAG-tagged XRN2 WT, full-length, gRNA-resistant (UniProt Q9H0D6); assay: co-IP; 293T cells transfected with the tagged proteins; lysates in 50 mM Tris pH 7.4, 150 mM NaCl, 1 mM EDTA with protease inhibitors; anti-FLAG beads overnight (FLAG pull-down); immunoblot
T1 sequence: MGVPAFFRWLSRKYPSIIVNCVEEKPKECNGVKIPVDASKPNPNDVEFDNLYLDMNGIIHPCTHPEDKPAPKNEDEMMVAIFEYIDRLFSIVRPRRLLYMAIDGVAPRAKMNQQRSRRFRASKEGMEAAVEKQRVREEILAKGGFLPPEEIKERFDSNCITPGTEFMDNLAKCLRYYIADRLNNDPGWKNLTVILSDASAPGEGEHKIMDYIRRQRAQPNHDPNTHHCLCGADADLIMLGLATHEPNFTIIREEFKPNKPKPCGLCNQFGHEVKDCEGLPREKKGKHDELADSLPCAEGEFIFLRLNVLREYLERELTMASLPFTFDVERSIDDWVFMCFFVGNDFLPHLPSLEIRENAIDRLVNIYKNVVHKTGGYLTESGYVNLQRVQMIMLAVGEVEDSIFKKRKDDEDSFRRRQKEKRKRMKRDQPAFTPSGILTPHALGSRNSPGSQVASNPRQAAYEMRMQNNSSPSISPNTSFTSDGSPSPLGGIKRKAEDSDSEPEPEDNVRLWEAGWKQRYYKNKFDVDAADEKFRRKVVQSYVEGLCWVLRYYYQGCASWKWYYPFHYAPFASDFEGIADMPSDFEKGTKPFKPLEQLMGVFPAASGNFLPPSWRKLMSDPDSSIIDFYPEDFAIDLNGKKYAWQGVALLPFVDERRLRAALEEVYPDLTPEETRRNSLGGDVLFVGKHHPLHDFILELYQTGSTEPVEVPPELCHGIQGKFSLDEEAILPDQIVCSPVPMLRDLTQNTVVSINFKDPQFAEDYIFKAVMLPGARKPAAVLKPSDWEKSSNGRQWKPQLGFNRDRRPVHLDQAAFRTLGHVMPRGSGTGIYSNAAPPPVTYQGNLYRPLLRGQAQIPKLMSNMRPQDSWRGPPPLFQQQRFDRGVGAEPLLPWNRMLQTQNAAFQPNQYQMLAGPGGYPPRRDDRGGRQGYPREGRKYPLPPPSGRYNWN

[2] = biological target: T2, FLAG-tagged XRN2-R946K, full-length, gRNA-resistant (UniProt Q9H0D6); assay: as above
T2 sequence: T1 sequence with R946K

[3] = biological target: T1, FLAG-tagged XRN2 WT, full-length, gRNA-resistant; assay: co-IP; XRN2-engineered THP1 cells (FLAG-XRN2 WT or R946K, endogenous XRN2 knocked out); IP with anti-FLAG beads; interactors detected by immunoblot
[4] = biological target: T2, FLAG-tagged XRN2-R946K, full-length, gRNA-resistant; assay: as above

Measured: binding

B1: p54nrb (protein, UniProt Q15233 1-471)
chain: MQSNKTFNLEKQNHTPRKHHQHHHQQQHHQQQQQQPPPPPIPANGQQASSQNEGLTIDLKNFRKPGEKTFTQRSRLFVGNLPPDITEEEMRKLFEKYGKAGEVFIHKDKGFGFIRLETRTLAEIAKVELDNMPLRGKQLRVRFACHSASLTVRNLPQYVSNELLEEAFSVFGQVERAVVIVDDRGRPSGKGIVEFSGKPAARKALDRCSEGSFLLTTFPRPVTVEPMDQLDDEEGLPEKLVIKNQQFHKEREQPPRFAQPGSFEYEYAMRWKALIEMEKQQQDQVDRNIKEAREKLEMEMEAARHEHQVMLMRQDLMRRQEELRRMEELHNQEVQKRKQLELRQEEERRRREEEMRRQQEEMMRRQQEGFKGTFPDAREQEIRMGQMAMGGAMGINNRGAMPPAPVPAGTPAPPGPATMMPDGTLGLTPPTTERFGQAATMEGIGAIGGTPPAFNRAAPGAEFAPNKRRRY
binds: all assays above
